Results as given in publication PMC3908400.
These are yes or no findings as the source states them, for the method shown. Binding seen in cells or lysates may run through a third protein. Some results given as binding are weak or reduced against the parent protein; the word gives no strength.

Protein sequences, listed by entry. Tags and fused reporters are not part of them. Lines headed by an entry give the natural chain unless they say otherwise; changes in a name come on top. Chains listed by the source or under a name are the forms on record and can include a tag or linker.
GST-RagB (Q5VZM2, form named): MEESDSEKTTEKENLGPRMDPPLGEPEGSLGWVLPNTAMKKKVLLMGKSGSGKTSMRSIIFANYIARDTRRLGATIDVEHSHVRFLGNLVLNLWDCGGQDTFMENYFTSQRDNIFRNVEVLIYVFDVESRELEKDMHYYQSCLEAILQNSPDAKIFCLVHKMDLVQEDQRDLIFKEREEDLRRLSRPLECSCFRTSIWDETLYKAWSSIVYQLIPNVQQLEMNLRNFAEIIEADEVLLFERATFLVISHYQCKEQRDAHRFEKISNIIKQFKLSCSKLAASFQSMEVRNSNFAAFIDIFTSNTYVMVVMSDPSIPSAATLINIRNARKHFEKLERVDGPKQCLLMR
UniProt Q9HB90: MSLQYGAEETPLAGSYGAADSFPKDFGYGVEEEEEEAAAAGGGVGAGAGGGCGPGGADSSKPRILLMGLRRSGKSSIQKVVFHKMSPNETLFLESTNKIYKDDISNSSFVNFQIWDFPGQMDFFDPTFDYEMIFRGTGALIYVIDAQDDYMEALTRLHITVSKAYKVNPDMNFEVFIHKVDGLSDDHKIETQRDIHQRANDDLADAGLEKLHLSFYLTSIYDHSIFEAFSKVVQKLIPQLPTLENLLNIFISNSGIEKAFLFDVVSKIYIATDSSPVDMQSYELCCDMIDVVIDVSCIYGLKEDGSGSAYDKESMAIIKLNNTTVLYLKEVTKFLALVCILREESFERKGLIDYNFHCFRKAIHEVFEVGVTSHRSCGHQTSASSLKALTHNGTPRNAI

Target: GST-RagB (UniProt Q5VZM2)
Test: pull-down; co-purification: GST-RagA or GST-RagB cotransfected with FLAG-RagC in HEK293T, lysis buffer A (0.3% CHAPS, 150 mM NaCl), GSH-Sepharose 2 h at 4 °C, eluted with 10 mM GSH

binding: binds
Substance: FLAG-RagC (from UniProt Q9HB90 1-399)
